These are yes or no findings as the source states them, for the method shown.
Target: MATα1 R264H mutant (human) (UniProt Q00266)
Assay: SEC + native gel or EMSA; MATα1 incubated with MATβV1 or MATβV2 in a 1:2 ratio for 1 h at 4°C in 50 mM HEPES pH 7.5, 10 mM MgCl2, 50 mM KCl; Superdex 200 10/300 in 25 mM HEPES pH 7.5, 200 mM NaCl, 1 mM MgCl2, 5 mM KCl, 1 mM TCEP; native PAGE and SDS-PAGE of the complex fraction; both purified

Sequences of proteins named here, by UniProt entry; tags and fusion partners are left off. A change or cut given only in a name is not applied to a line headed by its entry.
UniProt Q00266: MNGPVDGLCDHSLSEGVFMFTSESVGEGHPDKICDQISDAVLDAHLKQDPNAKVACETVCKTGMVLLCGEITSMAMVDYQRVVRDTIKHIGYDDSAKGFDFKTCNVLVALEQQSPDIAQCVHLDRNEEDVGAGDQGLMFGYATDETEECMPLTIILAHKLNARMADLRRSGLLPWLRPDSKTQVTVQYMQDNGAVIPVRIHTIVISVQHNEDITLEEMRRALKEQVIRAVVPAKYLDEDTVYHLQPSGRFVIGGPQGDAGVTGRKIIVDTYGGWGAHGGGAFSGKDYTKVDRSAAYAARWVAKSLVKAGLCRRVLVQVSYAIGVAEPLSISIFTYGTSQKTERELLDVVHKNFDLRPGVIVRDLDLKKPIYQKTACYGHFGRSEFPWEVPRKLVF

- binding: no binding
B1: MATβV2 (regulatory subunit MATβ, isoform V2) (protein, UniProt Q9NZL9-2 1-323)
chain: MPEMPEDMEQEEVNIPNRRVLVTGATGLLGRAVHKEFQQNNWHAVGCGFRRARPKFEQVNLLDSNAVHHIIHDFQPHVIVHCAAERRPDVVENQPDAASQLNVDASGNLAKEAAAVGAFLIYISSDYVFDGTNPPYREEDIPAPLNLYGKTKLDGEKAVLENNLGAAVLRIPILYGEVEKLEESAVTVMFDKVQFSNKSANMDHWQQRFPTHVKDVATVCRQLAEKRMLDPSIKGTFHWSGNEQMTKYEMACAIADAFNLPSSHLRPITDSPVLGAQRPRNAQLDCSKLETLGIGQRTPFRIGIKESLWPFLIDKRWRQTVFH

— paper PMC7271947
